Reference: article PMC10626543
These are yes or no findings as the source states them, for the method shown. Binding seen in cells or lysates may run through a third protein. A yes stands for co-enrichment or nearness to the bait. Other partners may have been found. For some of these results: Tags and fused reporters may be left off the sequences shown.

Protein sequences, listed by entry. Tags and fused reporters are not part of them. Residues count along the entry.
UniProt P48678, residues 1-647: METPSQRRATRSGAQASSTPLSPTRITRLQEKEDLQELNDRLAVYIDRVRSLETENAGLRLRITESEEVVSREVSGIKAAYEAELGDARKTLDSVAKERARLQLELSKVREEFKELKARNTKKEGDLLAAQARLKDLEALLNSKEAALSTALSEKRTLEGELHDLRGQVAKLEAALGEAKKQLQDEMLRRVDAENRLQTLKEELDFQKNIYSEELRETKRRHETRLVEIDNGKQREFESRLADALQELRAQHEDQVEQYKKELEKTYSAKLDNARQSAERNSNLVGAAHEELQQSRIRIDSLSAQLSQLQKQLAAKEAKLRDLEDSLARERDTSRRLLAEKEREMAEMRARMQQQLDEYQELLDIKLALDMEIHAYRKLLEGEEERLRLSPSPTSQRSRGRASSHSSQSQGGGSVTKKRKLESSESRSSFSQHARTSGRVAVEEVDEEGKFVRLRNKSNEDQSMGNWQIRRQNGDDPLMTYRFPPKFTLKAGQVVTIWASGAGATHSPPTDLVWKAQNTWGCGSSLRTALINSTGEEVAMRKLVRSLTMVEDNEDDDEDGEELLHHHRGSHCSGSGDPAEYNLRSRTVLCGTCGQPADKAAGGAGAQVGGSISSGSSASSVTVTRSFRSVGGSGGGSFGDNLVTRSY

B1: MICOS complex subunit Mic19 (protein, UniProt Q9CRB9 1-227)
chain: MGGTASTRRVTFEADENENITVVKGIRLSENVIDRMKESSPSGSKSQRYSSVYGASVSDEDLKRRVAEELALEQAKKESEHQRRLKQARDLERERAAANEQLTRAVLRERISSEEERMKAKHLARQLEEKDRVMRKQDAFYKEQLARLEERSSEFYKVTTEEYQKAAEEVEAKFKRYEYHPVCADLQTKILQCYRQNTQQTLSCSALASQYMHCVNHAKQSMLEKGG
B2: UTP--glucose-1-phosphate uridylyltransferase (protein, UniProt Q91ZJ5 1-508)
chain: MSRFVQDLSKAMSQDGASQFQEVILQELELSVKKELEKILTTAASHEFEHTKKDLDGFRKLFHRFLQEKGPSVDWGKIQRPPEDSIQPYEKIKARGLPDNISSVLNKLVVVKLNGGLGTSMGCKGPKSLIGVRNENTFLDLTVQQIEHLNKTYNTDVPLVLMNSFNTDEDTKKILQKYNHCRVKIYTFNQSRYPRINKESLLPIAKDVSYSGENTEAWYPPGHGDIYASFYNSGLLDTFIEEGKEYIFVSNIDNLGATVDLYILNHLMNPPNGKRCEFVMEVTNKTRADVKGGTLTQYEGKLRLVEIAQVPKAHVDEFKSVSKFKIFNTNNLWISLGAVKRLQEQNAIDMEIIVNPKTLDGGLNVIQLETAVGAAIKSFENSLGINVPRSRFLPVKTTSDLLLVMSNLYSLNAGSLTMSEKREFPTVPLVKLGSSFTKVQDYLRRFESIPDMLELDHLTVSGDVTFGKNVSLKGTVIIIANHGDRIDIPPGAVLENKIVSGNLRILDH
B3: Oxysterol-binding protein 1 (protein, UniProt Q3B7Z2 1-805)
chain: MAATELRGVVGPGPAAIAAPGGGGAGPPAVGGGGGRGDAGPGPGVAAATAATAGGPGPGAGGVAAGGPGSAPPAAGSGGSGAGGSGSAREGWLFKWTNYIKGYQRRWFVLSNGLLSYYRSKAEMRHTCRGTINLATANITVEDSCNFIISNGGAQTYHLKASSEVERQRWVTALELAKAKAVKMLAESDDSGDEESVSQTDKTELQSTLRTLSSKVEDLSTCNDLIAKHGTALQRSLSELESLKLPAESNEKIKQVNERATLFRITSNAMINACRDFLMLAQTHSKKWQKSLQYERDQRIRLEETLEQLAKQHNHLERAFRGATVLPANPPGSAGSGKDQCCSGKGDMSDEDDENEFFDAPEIITMPENLGHKRTGSNISGASSDVSLDEQYKHQLEETKKEKRTRIPYKPNYSLNLWSIMKNCIGKELSKIPMPVNFNEPLSMLQRLTEDLEYHELLDRAAKCENSLEQLCYVAAFTVSSYSTTVFRTSKPFNPLLGETFELDRLEENGYRSICEQVSHHPPAAAHHAESKNGWTLRQEIKITSKFRGKYLSIMPLGTIHCIFHSTGHHYTWKKVTTTVHNIIVGKLWIDQSGEIDIVNHKTGDKCNLKFVPYSYFSRDVARKVTGEVTDPSGKVHFALLGTWDEKMDCFKVQAASGENGGDARQRGHEAEDSRVMLWKRNPLPKNAENMYYFSELALTLNAWEGGTAPTDSRLRPDQRLMENGRWDEANAEKQRLEEKQRLSRKKREAEAAKATEDGTPHDPYKALWFERKKDPVTRELTHIYSGEYWECKEKQDWGSCPDIF
B4: Protein DJ-1 (protein, UniProt Q99LX0 1-189)
chain: MASKRALVILAKGAEEMETVIPVDVMRRAGIKVTVAGLAGKDPVQCSRDVMICPDTSLEDAKTQGPYDVVVLPGGNLGAQNLSESPMVKEILKEQESRKGLIAAICAGPTALLAHEVGFGCKVTTHPLAKDKMMNGSHYSYSESRVEKDGLILTSRGPGTSFEFALAIVEALVGKDMANQVKAPLVLKD
B5: NEDD8-conjugating enzyme Ubc12 isoform 1 (protein, UniProt P61082 1-183)
chain: MIKLFSLKQQKKEEESAGGTKGSSKKASAAQLRIQKDINELNLPKTCDISFSDPDDLLNFKLVICPDEGFYKSGKFVFSFKVGQGYPHDPPKVKCETMVYHPNIDLEGNVCLNILREDWKPVLTINSIIYGLQYLFLEPNPEDPLNKEAAEVLQNNRRLFEQNVQRSMRGGYIGSTYFERCLK
B6: protein phosphatase 1B (Ppm1b) (protein, UniProt P36993 1-390)
chain: MGAFLDKPKTEKHNAHGAGNGLRYGLSSMQGWRVEMEDAHTAVVGIPHGLDNWSFFAVYDGHAGSRVANYCSTHLLEHITTNEDFRAADKSGSALEPSVESVKTGIRTGFLKIDEYMRNFSDLRNGMDRSGSTAVGVMVSPTHMYFINCGDSRAVLCRNGQVCFSTQDHKPCNPVEKERIQNAGGSVMIQRVNGSLAVSRALGDYDYKCVDGKGPTEQLVSPEPEVYEIVRAEEDEFVVLACDGIWDVMSNEELCEFVKSRLEVSDDLENVCNWVVDTCLHKGSRDNMSVVLVCFSNAPKVSEEAVKRDSELDKHLESRVEEIMQKSGEEGMPDLAHVMRILSAENIPNLPPGGGLAGKRHVIEAVYSRLNPHKDNDGGAGDLEDSLVAL
B7: Caveolae-associated protein 2 (protein, UniProt Q63918 1-418)
chain: MGEDAAQAEKFQHPNTDMLQEKPSSPSPMPSSTPSPSLNLGSTEEAIRDNSQVNAVTVHTLLDKLVNMLDAVRENQHNMEQRQINLEGSVKGIQNDLTKLSKYQASTSNTVSKLLEKSRKVSAHTRAVRERLERQCVQVKRLENNHAQLLRRNHFKVLIFQEESEIPASVFVKEPVPSAAEGKEELADENKSLEETLHNVDLSSDDELPRDEEALEDSAEEKMEESRAEKIKRSSLKKVDSLKKAFSRQNIEKKMNKLGTKIVSVERREKIKKSLTPNHQKASSGKSSPFKVSPLSFGRKKVREGESSVENETKLEDQMQEDREEGSFTEGLSEASLPSGLMEGSAEDAEKSARRGNNSAVGSNADLTIEEDEEEEPVALQQAQQVRYESGYMLNSEEMEEPSEKQVQPAVLHVDQTA
B8: C- > U-editing enzyme APOBEC-2 (protein, UniProt Q9WV35 1-224)
chain: MAQKEEAAEAAAPASQNGDDLENLEDPEKLKELIDLPPFEIVTGVRLPVNFFKFQFRNVEYSSGRNKTFLCYVVEVQSKGGQAQATQGYLEDEHAGAHAEEAFFNTILPAFDPALKYNVTWYVSSSPCAACADRILKTLSKTKNLRLLILVSRLFMWEEPEVQAALKKLKEAGCKLRIMKPQDFEYIWQNFVEQEEGESKAFEPWEDIQENFLYYEEKLADILK
B9: Uncharacterized protein C3orf30 homolog (protein, UniProt A6X8Z9 1-381)
chain: MDEPPDESLNHENTTRAPDNEKNNIEGAGQALHRGSEHAGVGSSEPTGDKVSGQANAGSRQTGRRTSEEAEQRSSQPTEHRLPGHAERRASQQAERRLSERRTSQPPNQQLPSHSERKTSGKIDGQESLLSEQTDQETSEFDDLIPSASTDYLSARSQQQEYNQHGYWTEDSSDPHRLSEDLEKDYTRVKHITEKQAGYRSYYKTLAHIESRTLTDTNDYRETGQRLQPCTFEDSEAELPSKVSTTEETESATTIQAYNTQDTELTTSTSHEKLPSITTKVYYSSSPEKIQTTEYTSDTTPVFDQGRSSQRSSQSSRWRFPPIVFEDPYHVALRYVEKHNILHIFQQITENLVYERPDDPLYFMLDQVQNMIKHRDERQSD
B10: Myristoylated alanine-rich C-kinase substrate (protein, UniProt P26645 1-309)
chain: MGAQFSKTAAKGEATAERPGEAAVASSPSKANGQENGHVKVNGDASPAAAEPGAKEELQANGSAPAADKEEPASGSAATPAAAEKDEAAAATEPGAGAADKEAAEAEPAEPSSPAAEAEGASASSTSSPKAEDGAAPSPSSETPKKKKKRFSFKKSFKLSGFSFKKSKKESGEGAEAEGATAEGAKDEAAAAAGGEGAAAPGEQAGGAGAEGAAGGEPREAEAAEPEQPEQPEQPAAEEPQAEEQSEAAGEKAEEPAPGATAGDASSAAGPEQEAPAATDEAAASAAPAASPEPQPECSPEAPPAPTAE
B11: FAS-associated factor 1 (protein, UniProt P54731 1-649)
chain: MASNMDREMILADFQACTGIENIDEAITLLEQNNWDLVAAINGVIPQENGILQSDFGGETMPGPTFDPASHPAPASTPSSSAFRPVMPSRQIVERQPRMLDFRVEYRDRNVDVVLEDSCTVGEIKQILENELQIPVPKMLLKGWKTGDVEDSTVLKSLHLPKNNSLYVLTPDLPPPSSSSHAGALQESLNQNFMLIITHREVQREYNLNFSGSSTVQEVKRNVYDLTSIPVRHQLWEGWPASATDDSMCLAESGLSYPCHRLTVGRRTSPVQTREQSEEQSTDVHMVSDSDGDDFEDASEFGVDDGEVFGMASSTLRKSPMMPENAENEGDALLQFTAEFSSRYGDCHPVFFIGSLEAAFQEAFYVKARDRKLLAIYLHHDESVLTNVFCSQMLCAESIVSYLSQNFITWAWDLTKDTNRARFLTMCNRHFGSVIAQTIRTQKTDQFPLFLIIMGKRSSNEVLNVIQGNTTVDELMMRLMAAMEIFSAQQQEDIKDEDEREARENVKREQDEAYRLSLEADRAKREAHEREMAEQFRLEQIRKEQEEEREAIRLSLEQALPPEPKEENAEPVSKLRIRTPSGEFLERRFLASNKLQIVFDFVASKGFPWDEFKLLSTFPRRDVTQLDPNKSLLEVNLFPQETLFLQAKE
B12: N6-adenosine-methyltransferase subunit METTL14 (protein, UniProt Q3UIK4 1-456)
chain: MDSRLQEIRERQKLRRQLLAQQLGAESADSIGAVLNSKDEQREIAETRETCRASYDTSAPNSKRKCLDEGETDEDKVEEYKDELEMQQEEENLPYEEEIYKDSSTFLKGTQSLNPHNDYCQHFVDTGHRPQNFIRDVGLADRFEEYPKLRELIRLKDELIAKSNTPPMYLQADIEAFDIRELTPKFDVILLEPPLEEYYRETGITANEKCWTWDDIMKLEIDEIAAPRSFIFLWCGSGEGLDLGRVCLRKWGYRRCEDICWIKTNKNNPGKTKTLDPKAVFQRTKEHCLMGIKGTVKRSTDGDFIHANVDIDLIITEEPEIGNIEKPVEIFHIIEHFCLGRRRLHLFGRDSTIRPGWLTVGPTLTNSNYNAETYASYFSAPNSYLTGCTEEIERLRPKSPPPKSKSDRGGGAPRGGGRGGTSAGRGRERNRSNFRGERGGFRGGRGGTHRGGFTPR
B13: Kelch-like protein 41 (protein, UniProt A2AUC9 1-606)
chain: MDSQRELAEELRLYQSTLLQDGLKDLLEEKKFIDCTLKAGDKSFPCHRLILSACSPYFREYFLSEIEEEKKKEVALDNVDPAILDLIIKYLYSASIDLNDGNVQDIFALSSRFQIPSVFTVCVSYLQKRLAPGNCLAILRLGLLLDCPRLAISAREFVSDRFVQICKEEDFMQLSPQELISVISNDSLNVEKEEVVFEAVMKWVRTDKENRAKNLSEVFDCIRFRLMAEKYFKDHVEKDDIIKSNPEVQKKIKVLKDAFAGKLPEPSKNAEKAGAGEVNGDVGDEDLLPGYLNDIPRHGMFVKDLILLVNDTAAVAYDPMENECYLTALAEQIPRNHSSLVTQQNQVYVVGGLYVDEENKDQPLQSYFFQLDNVTSEWVGLPPLPSARCLFGLGEVDDKIYVVAGKDLQTEASLDSVLCYDPVAAKWSEVKNLPIKVYGHNVISHNGMIYCLGGKTDDKKCTNRVFIYNPKKGDWKDLAPMKTPRSMFGVAIHKGKIVIAGGVTEDGLSASVEAFDLKTNKWEVMTEFPQERSSISLVSLAGALYAIGGFAMIQLESKEFAPTEVNDIWKYEDDKKEWAGMLKEIRYASGASCLATRLNLFKLSKL

Target: native lamin A/C (mouse (endogenous in heart, skeletal muscle and brain)) (UniProt P48678)
Assay: affinity purification with mass spectrometry; native lamin A/C immunoprecipitated with mAb 4C11 and Protein G Sepharose from sonicated heart lysates of old IL10-KO and control C57Bl/6 female mice (five each); 50 mM Tris pH 7.4, 300 mM NaCl, 0.3% Triton X-100, 4°C; TMT 10-plex

binding, binds:
B1

Target: native lamin A/C (mouse (endogenous in heart, skeletal muscle and brain)) (UniProt P48678)
Assay: affinity purification with mass spectrometry; native lamin A/C immunoprecipitated with mAb 4C11 and Protein G Sepharose from sonicated skeletal muscle lysates of old IL10-KO and control C57Bl/6 female mice (five each); 50 mM Tris pH 7.4, 300 mM NaCl, 0.3% Triton X-100, 4°C; TMT 10-plex

binding, binds:
B2
B3
B4
B5
B6
B7
B8
B9
B10
B11
B12
B13
